Source: paper PMC11223080
No constants are given. Whether binding was seen depends on the method and setting. In cells and extracts the contact can be indirect.

By UniProt entry, the sequences of proteins in these tests, tags left out. Where a name states a change or a piece, a line headed by the entry shows the natural chain unless it says otherwise.
UniProt O54943: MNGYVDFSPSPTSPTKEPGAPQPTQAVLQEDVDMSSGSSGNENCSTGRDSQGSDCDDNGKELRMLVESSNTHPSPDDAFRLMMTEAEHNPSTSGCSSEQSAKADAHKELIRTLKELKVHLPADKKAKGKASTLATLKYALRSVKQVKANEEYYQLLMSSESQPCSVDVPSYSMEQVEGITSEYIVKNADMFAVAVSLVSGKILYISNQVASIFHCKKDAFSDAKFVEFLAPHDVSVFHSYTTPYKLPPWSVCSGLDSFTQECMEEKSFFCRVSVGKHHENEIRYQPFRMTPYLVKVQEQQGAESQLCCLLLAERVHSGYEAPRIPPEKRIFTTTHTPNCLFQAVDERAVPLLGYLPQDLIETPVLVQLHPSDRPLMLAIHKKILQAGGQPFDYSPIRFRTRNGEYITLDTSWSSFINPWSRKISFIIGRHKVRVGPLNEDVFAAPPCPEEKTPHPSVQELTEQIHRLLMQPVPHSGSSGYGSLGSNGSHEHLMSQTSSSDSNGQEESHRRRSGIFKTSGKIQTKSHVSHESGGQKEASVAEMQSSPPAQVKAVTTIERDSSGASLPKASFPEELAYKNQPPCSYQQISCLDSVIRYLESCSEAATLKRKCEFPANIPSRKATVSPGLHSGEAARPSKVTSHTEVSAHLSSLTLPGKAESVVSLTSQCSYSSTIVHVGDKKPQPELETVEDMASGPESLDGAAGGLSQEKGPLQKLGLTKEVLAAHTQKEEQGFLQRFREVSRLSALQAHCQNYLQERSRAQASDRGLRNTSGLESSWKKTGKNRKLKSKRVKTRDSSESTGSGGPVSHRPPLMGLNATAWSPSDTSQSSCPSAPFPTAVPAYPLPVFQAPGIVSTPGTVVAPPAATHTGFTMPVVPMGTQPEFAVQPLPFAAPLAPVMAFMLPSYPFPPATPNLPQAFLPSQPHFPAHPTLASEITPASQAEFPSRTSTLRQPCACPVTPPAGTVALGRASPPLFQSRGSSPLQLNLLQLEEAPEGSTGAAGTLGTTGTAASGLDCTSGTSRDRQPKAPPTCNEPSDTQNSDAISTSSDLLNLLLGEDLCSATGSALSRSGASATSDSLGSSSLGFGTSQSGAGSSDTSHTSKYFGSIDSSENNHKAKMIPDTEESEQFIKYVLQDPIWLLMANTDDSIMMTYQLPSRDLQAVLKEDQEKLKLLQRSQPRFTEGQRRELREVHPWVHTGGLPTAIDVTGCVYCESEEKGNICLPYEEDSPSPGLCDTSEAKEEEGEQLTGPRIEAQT
UniProt P49674: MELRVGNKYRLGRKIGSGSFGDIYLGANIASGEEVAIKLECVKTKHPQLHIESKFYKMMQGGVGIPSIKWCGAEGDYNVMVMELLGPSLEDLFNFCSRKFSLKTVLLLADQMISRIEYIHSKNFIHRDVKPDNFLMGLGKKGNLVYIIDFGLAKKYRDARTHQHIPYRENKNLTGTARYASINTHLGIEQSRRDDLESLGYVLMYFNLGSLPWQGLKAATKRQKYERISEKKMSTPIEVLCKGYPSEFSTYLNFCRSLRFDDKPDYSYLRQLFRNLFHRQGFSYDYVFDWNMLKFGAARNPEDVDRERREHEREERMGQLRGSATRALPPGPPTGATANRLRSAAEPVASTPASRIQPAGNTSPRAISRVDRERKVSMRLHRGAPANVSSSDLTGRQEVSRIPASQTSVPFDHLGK

Biological target: mouse PER2 with mutated CK1-binding domain B (Bd mut PER2) (mouse) (UniProt O54943)
Assay: co-IP; PER1 or PER2 immunoprecipitated from 75 ug of lysate of transfected HEK293 cells with antibody on Protein G Dynabeads, 30 min at room temperature, washed thrice with PBS-T (0.1% tween-20); immunoblot for CK1ε

binding: no binding
Substance: casein kinase 1ε (CK1ε) (from UniProt P49674 1-416) (enzyme)
